These are yes or no findings as the source states them, for the method shown. Binding seen in cells or lysates may run through a third protein. Some results given as binding are weak or reduced against the parent protein; the word gives no strength. Where a sequence is shown, tags or fusion partners need not be part of it.
Target: T1, His-RIG-I (UniProt O95786)
T1 sequence: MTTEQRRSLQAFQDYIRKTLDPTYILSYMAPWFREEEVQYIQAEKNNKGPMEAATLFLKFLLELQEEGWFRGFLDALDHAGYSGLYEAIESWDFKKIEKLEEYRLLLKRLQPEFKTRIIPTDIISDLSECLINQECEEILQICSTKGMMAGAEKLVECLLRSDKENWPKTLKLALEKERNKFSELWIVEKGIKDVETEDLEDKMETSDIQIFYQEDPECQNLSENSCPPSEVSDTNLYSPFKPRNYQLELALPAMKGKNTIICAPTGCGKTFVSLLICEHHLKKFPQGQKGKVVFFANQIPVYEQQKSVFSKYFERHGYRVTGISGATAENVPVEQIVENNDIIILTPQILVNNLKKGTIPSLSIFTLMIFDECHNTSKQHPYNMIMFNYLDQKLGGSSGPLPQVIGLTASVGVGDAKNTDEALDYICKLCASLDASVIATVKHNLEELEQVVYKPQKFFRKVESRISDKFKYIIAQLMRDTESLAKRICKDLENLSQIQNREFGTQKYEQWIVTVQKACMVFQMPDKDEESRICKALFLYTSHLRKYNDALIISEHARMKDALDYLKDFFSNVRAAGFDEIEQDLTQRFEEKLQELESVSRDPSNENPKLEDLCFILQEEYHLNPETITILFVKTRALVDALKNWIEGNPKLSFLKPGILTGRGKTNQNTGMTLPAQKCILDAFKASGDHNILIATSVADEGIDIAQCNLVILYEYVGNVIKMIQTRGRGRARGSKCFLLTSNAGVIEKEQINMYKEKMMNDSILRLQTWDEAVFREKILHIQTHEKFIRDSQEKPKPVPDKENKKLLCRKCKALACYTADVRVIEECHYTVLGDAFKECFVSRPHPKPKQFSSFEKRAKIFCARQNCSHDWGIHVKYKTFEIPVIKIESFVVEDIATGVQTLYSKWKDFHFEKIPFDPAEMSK
Assay: co-IP; Huh7.5.1 cells transfected with indicated plasmids (FUT8 overexpression) or treated with 2FF (100 uM) for 24 h, then infected with HCV (MOI = 0.1) for 48 h with MG132; IP with antibody to His-RIG-I and blot for Trim40, or IP with antibody to Trim40 and blot for His tag; RIPA buffer, protein A agarose beads, 4 °C

B1: Trim40 (protein, UniProt Q6P9F5 1-258)
chain: MIPLQKDNQEEGVCPICQESLKEAVSTNCGHLFCRVCLTQHVEKASASGVFCCPLCRKPCSEEVLGTGYICPNHQKRVCRFCEESRLLLCVECLVSPEHMSHHELTIENALSHYKERLNRRSRKLRKDIAELQRLKAQQEKKLQALQFQVDHGNHRLEAGPESQHQTREQLGALPQQWLGQLEHMPAEAARILDISRAVTQLRSLVIDLERTAKELDTNTLKNAGDLLNRSAPQKLEVIYPQLEKGVSELLLQPPQKL
binding: binds

Source: PMC10803816, “EGFR core fucosylation, induced by hepatitis C virus, promotes TRIM40-mediated-RIG-I ubiquitination and suppresses interferon-I antiviral defenses”
